Results as given in PubChem BioAssay AID330 (DTP/NCI, 2004).
The list shows only some results of the screen, not a fair sample: it gathers tests that were run many times, whatever their T/C, doses with no T/C, and many T/C values between a quarter and a half above the control. Further doses and runs are listed elsewhere. T/C is the treated group as % of the vehicle group. Some entries give survivors of the animals treated and no T/C: the source files T/C as zero there, which appears to mark a toxic dose or a test without result, not a measured value. Some survivor counts are full or nearly so, which does not show that the dose was tolerated: survival well below the control is almost never listed, so the zero probably covers shortened survival too. Counts of survivors are from the toxicity check (mostly the fifth day) where no day follows; animals may have died later. Schedule codes are those of the source, read here as Q, the interval in days (D) or hours (H), X, the number of doses. Some doses were run more than once; their values stand side by side, smallest first. For survival time, this PubChem deposit counts one and a half times the control or more as active, and values a quarter to a half above the control carry no call in these data; other NCI protocols may use other cut-offs. Brackets with × stand for listed records that agree.

System: P388 leukemia ip, CD2F1 mice, survival T/C
Assay: NCI In Vivo Anticancer Drug Screen. Data for tumor model P388 Leukemia (intraperitoneal) in CD2F1 (CDF1) mice
Details: T/C endpoint: median survival time, higher T/C = longer survival
[1] = dose: 240.0 mg/kg/injection, schedule: Q01DX005 (ip), vehicle: Klucel (hydroxypropylcellulose) (HPC)
[2] = dose: 25.0 mg/kg/injection, schedule: Q01DX009 (ip), vehicle: saline
[3] = dose: 50.0 mg/kg/injection, schedule: Q01DX009 (ip), vehicle: saline
[4] = dose: 50.0 mg/kg/injection, schedule: Q01DX009 (ip), vehicle: saline with Tween-80
[5] = dose: 100.0 mg/kg/injection, schedule: Q01DX009 (ip), vehicle: saline with Tween-80
[6] = dose: 400.0 mg/kg/injection, schedule: Q04DX002 (ip), vehicle: saline with Tween-80
[7] = dose: 200.0 mg/kg/injection, schedule: Q01DX009 (ip), vehicle: Klucel (hydroxypropylcellulose) (HPC)
[8] = dose: 200.0 mg/kg/injection, schedule: Q01DX009 (ip), vehicle: saline with Tween-80
[9] = dose: 25.0 mg/kg/injection, schedule: Q01DX005 (ip), vehicle: saline with Tween-80
[10] = dose: 50.0 mg/kg/injection, schedule: Q01DX005 (ip), vehicle: saline with Tween-80
[11] = dose: 100.0 mg/kg/injection, schedule: Q01DX005 (ip), vehicle: saline with Tween-80
[12] = dose: 200.0 mg/kg/injection, schedule: Q01DX005 (ip), vehicle: saline with Tween-80
[13] = dose: 200.0 mg/kg/injection, schedule: Q04DX003 (ip), vehicle: saline with Tween-80
[14] = dose: 400.0 mg/kg/injection, schedule: Q04DX003 (ip), vehicle: saline with Tween-80
[15] = dose: 400.0 mg/kg/injection, schedule: Q01DX001 (ip), vehicle: Klucel (hydroxypropylcellulose) (HPC)
[16] = dose: 200.0 mg/kg/injection, schedule: Q01DX005 (ip), vehicle: Klucel (hydroxypropylcellulose) (HPC)
[17] = dose: 150.0 mg/kg/injection, schedule: Q01DX009 (ip), vehicle: saline with Tween-80

With `O=c1ccc(OS(=O)(=O)c2ccccc2)n[nH]1` the survivor count [1] was 6 of 6.

With `O=C1OC(c2ccccc2)=C(Cl)C(Cc2ccccc2)(Cc2ccccc2)C1Cl` (configuration not stated) the survivor count (dose: 100.0 mg/kg/injection, schedule: Q04DX002 (ip), vehicle: Klucel (hydroxypropylcellulose) (HPC)) was 6 of 6, the survivor count (dose: 200.0 mg/kg/injection, schedule: Q04DX002 (ip), vehicle: Klucel (hydroxypropylcellulose) (HPC)) was 6 of 6 and the survivor count (dose: 400.0 mg/kg/injection, schedule: Q04DX002 (ip), vehicle: Klucel (hydroxypropylcellulose) (HPC)) was 5 of 5.

`CNCCOC(=O)/C=C1\CC[C@H]2[C@@H]([C@@H](O)C(=O)[C@@H]3[C@]2(C)CC[C@H](O)[C@]3(C)C(=O)OC)[C@H]1C` was tested, and the survivor count [2] was 2 of 6 and the survivor count [3] was 0 of 6.

In the case of `CCCCCCCCSC1=C(Cl)C(=O)C(OC)=C(OC)C1=O`, the survivor count [4] is reported as 0 of 6, the survivor count [5] is reported as 0 of 6 and the survivor count (dose: 100.0 mg/kg/injection, schedule: Q04DX002 (ip), vehicle: saline with Tween-80) is reported as 1 of 6. For the same compound, the survivor count (dose: 200.0 mg/kg/injection, schedule: Q04DX002 (ip), vehicle: saline with Tween-80) was 0 of 6 and the survivor count [6] was 0 of 6.

With `CC1CN(C(=O)Nc2ccc(Cl)c(Cl)c2)CC(C)O1` (configuration not stated) the survivor count [4] was 5 of 6 and the survivor count [5] was 5 of 6.

In the case of `O=C(Cc1ccccc1)c1ccc(C(F)(F)F)cc1`, the survivor count [7] is reported as 6 of 6.

In the case of `Clc1ccc(NCc2ccc(CNc3ccc(Cl)cc3)cc2)cc1`, the survivor count [4] is reported as 6 of 6, the survivor count [5] is reported as 6 of 6 and the survivor count [8] is reported as 5 of 6.

For `CC(=O)NCCn1nc(-c2ccc(Cl)cc2)c(-c2ccc(Cl)cc2)c(C(C)=O)c1=O`, the survivor count [9] was 5 of 6, the survivor count [10] was 0 of 6 and the survivor count [11] was 0 of 6. For the same compound, the survivor count [12] was 0 of 6.

In the case of `C=CC(CO)N1CC1` (configuration not stated), the survivor count (dose: 6.25 mg/kg/injection, schedule: Q01DX009 (ip), vehicle: saline) is reported as 6 of 6, the survivor count (dose: 12.5 mg/kg/injection, schedule: Q01DX009 (ip), vehicle: saline) is reported as 6 of 6 and the survivor count (dose: 100.0 mg/kg/injection, schedule: Q04DX003 (ip), vehicle: saline with Tween-80) is reported as 0 of 6. For the same compound, the survivor count [13] was 0 of 6 and the survivor count [14] was 0 of 6.

`Cc1nnc(N/N=C/c2ccc([N+](=O)[O-])o2)[nH]c1=O` was tested, and the T/C [9] was 128, 144, 145 % of control, the T/C [10] was 133 and 137 % of control and the survivor count [10] was 6 of 6. The survivor count [11] was 2 of 6 and the survivor count [12] was 0 of 6.

In the case of `CCCCCCCCCc1cc(CN2CCCCC2)c(O)c(CN2CCCCC2)c1`, the survivor count (dose: 100.0 mg/kg/injection, schedule: Q01DX009 (ip), vehicle: saline) is reported as 0 of 6.

For `CC1(C)N=C(N)N=C(N)N1c1cccc(CSc2ccccc2)c1`, the survivor count (dose: 60.0 mg/kg/injection, schedule: Q01DX005 (ip), vehicle: Klucel (hydroxypropylcellulose) (HPC)) was 0 of 6, the survivor count (dose: 120.0 mg/kg/injection, schedule: Q01DX005 (ip), vehicle: Klucel (hydroxypropylcellulose) (HPC)) was 0 of 6 and the survivor count [1] was 0 of 6.

In the case of `COc1ccc(/C=N/N2CN(C(C)C(=O)O)B(NCCC(C)C)N=C2N)cc1OC` (configuration not stated), the survivor count (dose: 240.0 mg/kg/injection, schedule: Q01DX005 (ip), vehicle: saline) is reported as 2 of 6.

For `C[As](C)SC(CO)C1OC2OC(C)(C)OC2C1O` (configuration not stated), the survivor count (dose: 100.0 mg/kg/injection, schedule: Q01DX009 (ip), vehicle: saline + alcohol) was 0 of 6 and the survivor count (dose: 200.0 mg/kg/injection, schedule: Q01DX009 (ip), vehicle: saline + alcohol) was 0 of 6.

In the case of `O=P(Oc1cccc2ccccc12)(N1CC1)N1CC1`, the T/C [4] is reported as 140 % of control.

In the case of `C#CCOC(=O)Nc1nc2ccc(SC#N)cc2s1`, the survivor count (dose: 100.0 mg/kg/injection, schedule: Q01DX009 (ip), vehicle: Klucel (hydroxypropylcellulose) (HPC)) is reported as 6 of 6 and the survivor count [7] is reported as 0 of 6.

With `CN(C)c1cc(C(=O)O)nc(C(=O)O)c1` the survivor count (dose: 200.0 mg/kg/injection, schedule: Q01DX001 (ip), vehicle: Klucel (hydroxypropylcellulose) (HPC)) was 6 of 6 and the survivor count [15] was 6 of 6.

With `C[Si]1(C)CC[Si](C)(C)S1` the survivor count [12] was 0 of 5.

For `Cc1cc(-c2ccc(N=Nc3c(C)nn(-c4ccc(S(=O)(=O)O)cc4)c3O)c(C)c2)ccc1N=Nc1ccc(O)c(C(=O)O)c1`, the survivor count [4] was 6 of 6, the survivor count [5] was 6 of 6 and the survivor count [8] was 1 of 6.

For `O=C(C[n+]1ccsc1Br)c1ccccc1`, the survivor count [12] was 0 of 5.

For `CC(=O)NS(=O)(=O)c1ccc(N/N=C(\C#N)C(N)=O)cc1`, the survivor count [16] was 2 of 5.

In the case of `COc1ccc(NC(=S)NN)cc1`, the survivor count [17] is reported as 2 of 6, the survivor count [13] is reported as 5 of 6 and the survivor count [14] is reported as 3 of 6.

With `NC(CS(=O)Cc1ccccc1)C(=O)O` (configuration not stated) the survivor count [12] was 1 of 5.

In the case of `O=[N+]([O-])[O-].OCCNCCNCC[OH2+].OCCNCCNCC[OH2+].[Ni+2]`, the survivor count [2] is reported as 6 of 6 and the survivor count [3] is reported as 6 of 6.

In the case of `COc1cccc2c1C(=O)c1c(O)c3c(c(O)c1C2=O)C[C@@](O)(/C(CO)=N/NS(=O)(=O)c1ccc(C)cc1)C[C@@H]3OC1CC(N)C(O)C(C)O1` (some centres not stated), the T/C (dose: 0.78 mg/kg/injection, schedule: Q01DX009 (ip), vehicle: water) is reported as 125 % of control, the T/C (dose: 3.13 mg/kg/injection, schedule: Q01DX009 (ip), vehicle: water) is reported as 125 and 137 % of control and the T/C (dose: 12.5 mg/kg/injection, schedule: Q01DX009 (ip), vehicle: water) is reported as 125 % of control.

In the case of `CC1CC23C4CCCN2CC2OC2C13C1CC4OC1=O` (configuration not stated), the survivor count [7] is reported as 0 of 6.

In the case of `COc1cccc(OCC(=O)O)c1OC`, the survivor count [15] is reported as 3 of 6.

For `Nc1ccc(S(=O)(=O)c2ccc(N)cc2)cc1`, the T/C (dose: 12.5 mg/kg/injection, schedule: Q01DX009 (ip), vehicle: saline with Tween-80) was 89, 96, 100, 103, 124 % of control, the T/C (dose: 25.0 mg/kg/injection, schedule: Q01DX009 (ip), vehicle: saline with Tween-80) was 96, 99, 102, 103, 108 % of control and the T/C [4] was 98, 105 (3×), 116 % of control. For the same compound, the T/C [5] was 105 (2×), 106, 109, 114 % of control, the survivor count [17] was 4 of 6 and the survivor count [16] was 1 of 5. For the same compound, the survivor count (dose: 400.0 mg/kg/injection, schedule: Q01DX005 (ip), vehicle: Klucel (hydroxypropylcellulose) (HPC)) was 0 of 5.

For `CC1(C(Cl)(Cl)Cl)C=CC(=O)C=C1`, the survivor count (dose: 400.0 mg/kg/injection, schedule: Q01DX009 (ip), vehicle: saline with Tween-80) was 3 of 6.

In the case of `CC(NC(=O)C(Cc1ccc(OC(=O)OCc2ccccc2)cc1)NC(=O)OCc1ccccc1)C(=O)OCc1ccccc1` (configuration not stated), the survivor count [12] is reported as 5 of 6.

With `C=CCOC(=O)C12CCC(C)(C)CC1C1=CCC3C4(C)CCC(O)C(C)(CO)C4CCC3(C)C1(C)CC2` (configuration not stated) the survivor count [9] was 6 of 6, the survivor count [10] was 6 of 6 and the survivor count [11] was 6 of 6. For the same compound, the survivor count [12] was 6 of 6.

In the case of `O=S1(c2ccccc2)=NP(N2CC2)(N2CC2)=NP(N2CC2)(N2CC2)=N1` (configuration not stated), the T/C (dose: 150.0 mg/kg/injection, schedule: Q04DX003 (ip), vehicle: saline) is reported as 147 % of control.

For `Cc1cccc(C)c1N=CNc1c(C)cccc1C.[Cu+2]`, the T/C [4] was 105, 114, 117, 134 % of control, the survivor count [5] was 2 of 6 and 3 of 6 and the survivor count [8] was 5 of 6.

For `CCCCCCCCCCCC1CCCC(C)N1` (configuration not stated), the survivor count (dose: 100.0 mg/kg/injection, schedule: Q01DX005 (ip), vehicle: Klucel (hydroxypropylcellulose) (HPC)) was 0 of 6.

With `CC(C)=CCC(OC(=O)C=C(C)C)c1cc(O)c2c(O)ccc(O)c2c1O.[Cu]` (configuration not stated) the survivor count [6] was 6 of 6.

For `CC1=C(C(=O)CC(=O)C(=O)Nc2ccc(Cl)cc2Cl)Sc2ccccc2N1`, the survivor count (dose: 240.0 mg/kg/injection, schedule: Q01DX005 (ip), vehicle: saline with Tween-80) was 2 of 6.

In the case of `CCCCCCCCCCCCNC(=S)C(=S)NCCCCCCCCCCCC`, the survivor count [7] is reported as 6 of 6.

In the case of `Clc1ccc2[nH]c3nc4ccccc4nc3c2c1`, the survivor count [5] is reported as 6 of 6.
